Source: the supplement of paper PMC5949888
Most values lie at the floor of the assay. Slopes are relative: functional sequences can read slightly below zero.

Tested on: Saccharomyces cerevisiae PS128 hsf1 delta, HSF1(1-493) fusion
Test: growth estimate (transactivation domain function in HSF1 fusion, heat-shock survival) (a.u. (slope of normalised read count over time)); higher = stronger growth at 37°C, i.e. more transactivation activity
Conditions: library: random library

Substance	growth estimate
WELSIECSNRSYSVPASTGI	-0.246
IIRDTIMDCDYLVESS	< -0.25
FDVRIEVSKYSG	< -0.25
CTLCDLGRMHL	< -0.25
FSQ	-0.214
LNGSSTKVPKLDPCCASVCT	< -0.25
SGLRKGCVPVSN	< -0.25
NQPLTSTPTGPRRTSNARCL	-0.246
TPYLEGQ	< -0.25
GLAVSCGATRGFLNRGMVRG	< -0.25
WRLHKRPNPSC	< -0.25
HIETQHSFTQ	< -0.25
TIW	< -0.25
GTLDFYKALTYMSKSHLYHA	< -0.25
ARKSSYGPAQEVRYAVREAT	< -0.25
SPLAARGTTELRSIHPTPMH	< -0.25
GPKVKYNGGVGSDAPWGGRP	< -0.25
GFSLFE	< -0.25
PEVTLSIFVRIVQYFPREYR	< -0.25
RVWVLCHRQAIWTEALLKDD	< -0.25
ISDKFLV	< -0.25
VGRRAYKRKDW	< -0.25
YGIRAIRSANGAGQVLTM	< -0.25
EEGRGCTLRPGRQ	< -0.25

Substance	growth estimate
PVNHELLSPVSGLLLGEAGR	< -0.25
GVGVYPEAYTRRG	< -0.25
PGRDVSISGATGEAPYGPDG	< -0.25
VFRFCIG	< -0.25
VFSSSPPAVSSTLPCIIVRG	< -0.25
QAGSPWIPDRFLPVKHAYMS	-0.198
ADSSTE	< -0.25
GRGSLCRVIHCIKSDVVPAG	< -0.25
PDPDIGGRSHCVASY	< -0.25
REVSWPALFSYGGFSEVRHV	-0.203
RDSGLPLVRRFCE	< -0.25
GDSNKK	< -0.25
IYRAQPSP	< -0.25
NMETVVPKGINSAGTTTGTS	< -0.25
IAGNLLRGRSAACFRFRERF	< -0.25
RVAETKLGRPAATLARVLIQ	< -0.25
VRRLPAADRFGNHIESSHEF	< -0.25
ELSGNSWDTEWDLGAHSASG	< -0.25
RSTIDRPIQLAACRPVCC	< -0.25
TNCNLIPSEHLGSWPRQPWG	< -0.25
RPIHLPPMEHHDRLLC	< -0.25
QVESVKVRDKYG	< -0.25
LLKARCVS	< -0.25
VSVVGGKMSVCAAQTHGPHW	< -0.25

Substance	growth estimate
QESMATGQISDTSASRAPVT	-0.245
RGKQQMWQAGGNRGGSAYWI	< -0.25
STWEVRTSGGISYL	< -0.25
PASG	< -0.25
ARIPTGSLILVLLRK	< -0.25
HQARTRGLTNYGTKLHCVAG	< -0.25
FVPIEPTQIGIVLYETSGCV	< -0.25
WGQGTDT	< -0.25
FLNTFSDISSCF	-0.25
HHYKKLCNGSLCRPCPIWRG	< -0.25
RSYTGNFKYLNEIVV	< -0.25
DDMRT	< -0.25
IENRDLPLKFVGIGGVTNLQ	-0.245
GDVHQDLMSFYTANKAALAH	< -0.25
HRGANNWLMHAYNSKRAWYG	< -0.25
QCAVAAGAAVSNFAFSWRQR	< -0.25
RVHERG	< -0.25
LSSNVIRLQVVQESASFTPC	< -0.25
SSRLAIG	-0.235
SKKLSPSASFGGTRWNCRAL	< -0.25
RLAVMSSIDGTYQAT	< -0.25
QPNRTFPWLPGTGGTD	< -0.25
LPDCRHK	< -0.25
TQAVRQVTLARLR	< -0.25

Substance	growth estimate
VDLSSIDYENCTPAEKMTRS	< -0.25
GPLILP	< -0.25
QSQAKRRFGLRRLCSRSRAG	< -0.25
DGWEYIALVYWFMIFRRASY	< -0.25
ATRLKVGCWLTQYEPSTSLA	< -0.25
PSAIHWCLIHQELVHPTRPI	< -0.25
ERDTVVCKRSDILDLTQVNC	< -0.25
LGPYYECKSRCQTASHLARL	< -0.25
GFMFTRNAHAPPVIDESIIP	< -0.25
SICVKPMDCGRPSQYYTVHR	< -0.25
GTYCCRIDLACDESRRTG	< -0.25
VGKRIG	< -0.25
NSRGGVLVSWVGHKAV	-0.246
SRR	< -0.25
YGIVGRGRQYMHKL	< -0.25
VSSNRRLLGIITMRDHRRAR	< -0.25
RPRTANKVSIALEWFPLSMG	< -0.25
SSTVLSLVNLFRTLRQR	< -0.25
SVFVRCKYIQGGRTLLRQYS	< -0.25
IPQEYNLHSYVFWL	< -0.25
VNPYNSASYAQDWQDCAIFR	< -0.25
QTMAGY	< -0.25
HRSGAFSVEICPRCVLMRSR	< -0.25
RTRTQAVLA	< -0.25

Substance	growth estimate
RILGSTPSVPAIHRS	< -0.25
RITGRHVRTSMLEWLDLSA	< -0.25
LTCADVQGRARSY	< -0.25
GIIGE	< -0.25
RTSCF	< -0.25
NGDVRGGRVSLF	< -0.25
GIKIGLTIWLRGGDHYALPA	< -0.25
GIPAKEASSLSRSAPTRNNP	< -0.25
GPGGWCLAASVMDLRFSPPE	< -0.25
VSRGIPETHALRLRPGVLSR	< -0.25
ISSDPGIVES	< -0.25
RKLSSADFPRCENGRTWYTS	< -0.25
VAGYSGPRQRAVRGTPAGGT	< -0.25
RSAYVCRPVAGPVKALHSTN	< -0.25
RLGASSQRGSEGWSQWPRGT	< -0.25
YMCVH	< -0.25
RLRDLRHNGRKDKCLRSDRG	< -0.25
ILRGNQSGSRSFRGPQ	< -0.25
RILCGTTKTCAHCPGHGAD	< -0.25
LIRLAGYPVRCCMCSSRMLG	< -0.25
IGRRLGPGVSLVAAPIGCIT	< -0.25
ICMKLRSSDRGPCRPVEIPY	< -0.25
TPNDRRAPNDMVLRSVRVLG	< -0.25
VRNSLGRGGERIGVYSVSWG	< -0.25

Shown in markdown: part of the list above.

| Substance | growth estimate |
| --- | --- |
| RILGSTPSVPAIHRS | < -0.25 |
| NGDVRGGRVSLF | < -0.25 |
| GIKIGLTIWLRGGDHYALPA | < -0.25 |
| VSRGIPETHALRLRPGVLSR | < -0.25 |
| ISSDPGIVES | < -0.25 |
| RKLSSADFPRCENGRTWYTS | < -0.25 |
| RSAYVCRPVAGPVKALHSTN | < -0.25 |

Next records follow:

Substance	growth estimate
QGIIWQVSFS	< -0.25
RGGP	< -0.25
DGTANASNVASKSTAREGSA	< -0.25
DSGAGSI	< -0.25
DGSGCFSYALRCVLPSRYSG	-0.231
DSSLGLGIRRLKDPAGQTPA	< -0.25
CICASTGYT	< -0.25
CGGGTSDVNGYAARGLRTDA	< -0.25
EHPLGRMELEFHRRGEVFTG	< -0.25
NDSFTLPYSLRITILEIRDR	-0.241
VKSGTVG	< -0.25
PGAESLQKIRVRAWVLAVYR	< -0.25
TATRVTFGEC	< -0.25
ELAL	< -0.25
RRAKLCYICSDFSSGFLGLL	< -0.25
SYRRGVGA	< -0.25
YHGWISEATVDFLEGL	< -0.25
SDPKS	< -0.25
MSRASIHEPNGICCRSDSAV	< -0.25
RLALWRITLC	< -0.25
VNKQPWLDSRGPVILWQLVS	-0.168
TCIENEMESATET	< -0.25
